The results in this text go back to PMC5741264.

This test addresses T1, NUP85-MYC (NUCLEOPORIN 85, expressed from NUP85pro:NUP85-MYC) (Arabidopsis thaliana) (UniProt Q8RXH2).
T1 sequence: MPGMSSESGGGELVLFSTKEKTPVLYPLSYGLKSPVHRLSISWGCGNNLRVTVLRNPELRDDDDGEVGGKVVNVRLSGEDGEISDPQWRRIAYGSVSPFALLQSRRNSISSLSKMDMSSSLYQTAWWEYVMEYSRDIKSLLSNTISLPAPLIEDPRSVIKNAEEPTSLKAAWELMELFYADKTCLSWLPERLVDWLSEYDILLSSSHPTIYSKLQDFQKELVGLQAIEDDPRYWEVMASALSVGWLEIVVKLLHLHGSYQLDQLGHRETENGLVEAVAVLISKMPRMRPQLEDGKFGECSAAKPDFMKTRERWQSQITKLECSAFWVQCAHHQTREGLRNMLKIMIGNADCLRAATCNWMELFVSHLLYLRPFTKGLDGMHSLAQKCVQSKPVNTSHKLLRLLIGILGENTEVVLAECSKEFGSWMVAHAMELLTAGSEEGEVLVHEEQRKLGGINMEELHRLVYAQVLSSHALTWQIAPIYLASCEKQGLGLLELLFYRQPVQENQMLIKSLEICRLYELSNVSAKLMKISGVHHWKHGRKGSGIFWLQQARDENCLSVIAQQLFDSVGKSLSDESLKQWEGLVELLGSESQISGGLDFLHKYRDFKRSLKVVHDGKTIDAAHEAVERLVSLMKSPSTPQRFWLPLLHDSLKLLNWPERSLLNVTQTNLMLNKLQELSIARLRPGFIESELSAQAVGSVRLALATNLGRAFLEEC
The test is described as follows: affinity purification with mass spectrometry; anti-MYC agarose beads on total protein extract of 12-day-old NUP85pro:NUP85-MYC transgenic seedlings, WT seedlings as negative control; 4 h at 4°C; two independent IP-MS experiments.

No constants are given. Whether binding was seen depends on the method and setting. Binding seen in cells or lysates may run through a third protein. Here binding means that the protein was enriched with, or labelled near, the bait; the list need not be complete. Sequences can lack the tags named with a protein.

B1: Sec13A, endogenous (protein, UniProt Q9SRI1 1-302)
chain: MPPQKIETGHSDTIHDVVMDYYGKRVATASSDCTIKITGVSNSGGSQHLATLTGHRGPVWQVAWAHPKFGSLLASCSYDGQIILWKEGNQNQWTQAHVFTDHKVSVNSIAWAPHELGLSLACGASDGNISVFSARADGGWDTTKIDQAHPVGVTSVSWAPATEPGALVSSGMIDPVYKLASGGCDSTVKVWKFSNGSWKMDCFPALNKHTDWVRDVAWAPNLGLPKSTIASGSEDGKVIIWTIGKEGEQWEGTVLKDFKTPVWRVSWSLTGNLLAVSDGNNNVTVWKESVDGEWEQVTVVEP
B1: the binding entry is reported as “binds”.

B2: MED18, endogenous (protein, UniProt Q9SJZ6 1-219)
chain: MSMECVVQGIIETQHVEALEILLQGLCGVQRERLRVHELCLRSGPNLGVVSSEVRLLCDLDQPEPTWTVKHVGGAMRGAGADQISVLVRNMIESKVSKNALRMFYALGYKLDHELLKVGFAFHFQRTAHISVSVSSVNKMPKVHAIDEAVPVTPGMQIVDVTAPATSENYSEVAAAVSSFCEFLAPLVHLSKPSISTGVVPTAAAAAASLMSDGGGTTL
Consider B2, for which the binding entry is given as “binds”.

B3: NUP96 (protein, UniProt Q8LLD0 1-1046)
chain: MTSLSIQPFPEISRMARDLDSRKKRRISLDGIAALCEHSKEIIDSLPMLNSPDYFLKPCINELVEREIESPDYCSRVPDFTIGRIGYGYIRFLGNTDVRRLDLDHIVKFHRHEVIVYDDESSKPVVGEGLNKAAEVTLVVNIPDLTWGKQQVNHIAYKLKQSTERQGATFISFDPDNGLWKFFVPHFSRFGLSDDEAEDIAMDDAPGLGDPVGLDGKKVADIDEEDQMETSELELSHSLPAHLGLDPEKMKEMRMLMFPNEDEDESEDFREQTSHLMTSLTKRNVRPSQKIAQRNSHQDPPPVVRKTPLALLEYNPGNDKSSPGSILMVQQNKNLAVRKSKTGGFELDISHVTPLTDNYSRNVVDAALFMGRSFRAGWGPNGVLFHTGKPICSSSSQMVLSSVINKEKIAIDKVVWDRKGKVQKELIDSAFEAPLSLHKELNHVEEEVRFGSFSLKLQNVVTDRVVLSDICRSYIGIIEKQLEVAGLSTSAKLFLMHQVMVWELIKVLFSERQSTERLMYAASDNEEDVMQDVKEDSAKIDTEALPLIRRAEFSCWLQESVSHRVQEDVSDLNGSSYLEHLFFLLTGRELDSAVELAISKGDVRLACLLSQAGGSTVNRNDILQQLHLWRRNGLDFNFIEKERIKLYELLAGNIHDALQDFTIDWKRFLGLLMWHHLPPDSSLPIIFRSYQLLLNQAKAPWPVPIYIDEGPADGFVSDNKHSDILYYLMLLHSKEEEEFGFLQTMFSAFSSTDDPLDYHMIWHHRGILEAVGAFTSDDLHTLDMGFVAQLLSQGLCHWAIYVVLHIPFREDHPYLHVTVIREILFQYCETWSSMESQRQFIKDLGIPSEWMHEALAVYYNYHGDFVKALDQFIECANWQRAHSIFMTSVAHSLFLSANHSEIWRIATSMDDRKSEIENWDLGAGIYMSFYLLKSSLQEDADTMVELEPLDSTNESCRNFVGRLNESLAVWGDRLPVEARVAYSKMAEEICDLLLSDLSKNPSRETQLTCFETAFDAPLPEDVRSTHLQDAVSLFSLYLSETGQISA
With B3, the binding entry was “binds”.

B4: MED16 (protein, UniProt F4JGZ1 1-1278)
chain: MNQQNPEEEVSLVNNSGGGGIIEAPAIVEEKEEEGLQQKQEETIESTDPILVVVEEKLLEKSVDGEKEDDNSSSSNMEIDPVSPATVFCVKLKQPNSNLLHKMSVPELCRNFSAVAWCGKLNAIACASETCARIPSSKANTPFWIPIHILIPERPTECAVFNVVADSPRDSVQFIEWSPTSCPRALLIANFHGRITIWTQPTQGSANLVHDATSWQCEHEWRQDIAVVTKWLTGASPYRWLSSKPSSGTNAKSTFEEKFLSQSSESSARWPNFLCVCSVFSSGSVQIHWSQWPSNQGSTAPKWFSTKKGLLGAGPSGIMAADAIITDSGAMHVAGVPIVNPSTIVVWEVTPGPGNGLQATPKISTGSRVPPSLSSSSWTGFAPLAAYLFSWQEYLISEIKQGKKPSDQDSSDAISLSCSPVSNFSAYVSPEAAAQSAATTTWGSGVTAVAFDPTRGGSVIAVVIVEGQYMSPYDPDEGPSITGWRVQRWESSVQPVVLHQIFGNPTSNFGGQVPTQTVWVSRVDMSIPPTKDFKNHQVAAAGPSVDAPKEPDSGDEKANKVVFDPFDLPSDIRTLARIVYSAHGGEIAIAFLRGGVHIFSGPTFSPVENYQINVGSAIAAPAFSPTSCCSASVWHDAAKDCAMLKIIRVLPPALPRNQSKVDQSTWERAIAERFWWSLLVGVDWWDAVGCTQSAAEDGIVSLNSVIAVMDADFHSLPSTQHRQQYGPNLDRIKCRLLEGTNAQEVRAMVLDMQARLLLDMLGKGIESALVNPSALVFEPWRVDGETITGINPEAMAVDPALVSSIQAYVDAVLDLASHFITRLRRYASFCRTLASHAASAGTGSNRNNVTSPTQNASSPATPQVFPDKSLYLAVGQPTTTTTTTATTNSSGSSHVQAWMQGAIAKISSSNDGSNSTASPISGSPTFMPISINTGTFPGTPAVRLIGDCHFLHRLCQLLLFCFLQRSSRFPQRNADVSSQKLQTGATSKLEEVNSAKPTPALNRIEDAQGFRGAQLGTGVKGIDENSARTTKMGSGNAGQGYTYEEVRVLFHILMDLCKRTSGLAHPLPGSQVGSGNIQVRLHYIDGNYTVLPEVVEAALGPHMQNMPRPRGADAAGLLLRELELHPPSEEWHRRNLFGGPGSEPEDMILTDDVSKLSNSLDLPDTNFSGICDGYNRVHSLWPRKRRMSERDAAFGSNTSVGLGAYLGIMGSRRDVVTATWKTGLEGVWYKCIRCLRQTSAFASPGATKQPNPNERETWWTSRWVYCCPMCGGTWVRVV
As for B4, the binding entry is on record as “binds”.

B5: NUP43 (protein, UniProt Q24JJ9 1-361)
chain: MEMMQDSFQVHRIPQSKYVDGVRWLPQASALNRFFATASYDADCDSSSIEIQSLDPNPRGNHNTNPLIESLSSWTSPSRVSSLEVAGNGGGGGSFKPMVSAATSSGSLHVLMIDLVEGAAIEEFYAAEGERFHVGRVEGVDWREGGECVTVGEDGRVNVVKIVNGEGLRYRKVFDGNGLVAYRAVKWASPTEFVTGGYGFGLQLWDQRKSGEAVSQLKGNWFQGKTSAIVHSIDIHPSRKHTCIAGGSSGTVFAWDLRWPQQPIVLSGVGASENINNPLSESEVWEVQYDSYTKSNVSSSRILPVMTCSEDGILGIIEQGEEPIELLAEPCAINSFDIDRQNPQDVICSLEWESIAVFSRP
As to B5, the binding entry was “binds”.

B6: NUP107 (protein, UniProt Q8L748 1-1101)
chain: MDMDMDTSPSYFDPEALSVRDQFRRYRKRHSTSPHEEMLSSNVSENRLLYDGHNIHSPTNTALLLENIKEEVDNFHTDHYEGTPTNPISASRRESVGILNDDDEALFRRVESQSLKACKIENDELAESGDTTFALFASLFDSALQGLMSIPNLMLRLEESCRNVSQSIRYGSDIRHRAVEDKLMRQKAQLLLGEAASWSLLWNLYGKGTDEVPENLILIPSTSHLEACQFVLNDHTAQLCLRIVMWLEELASKSLDLERKVQGSHVGTYLPNAGVWHHTQRYLKKNGSNADTLHHLDFDAPTREHARLLPDDYKQDESVLEDVWTLIRAGRIEEACDLCRSAGQSWRAATLCPFSGMDMFPSIEALVKNGENRTLQAIEQESGFGNQLRLWKWASYCASEKIAEQDGGKHEVAVFATQCSNLNRMLPICTDWESACWAMAKSWLDVQVDLELAQSKPGLTERFKSCIDESPEATQNGCQASFGPEDWPLHVLNQQPRDLPALLQKLHSGEMVHEAVVRGCKEQHRQIQMNLMLGDISHLLDIIWSWIAPLEDDQSNFRPHGDPHMIKFGAHMVLVLRLLFTDEINDSFKEKLNNVGDLILHMYAMFLFSKQHEELVGIYASQLARHRCIELFVHMMELRMHSSVHVKYKIFLSAMEYLSFSPVDDLHGNFEEIVDRVLSRSREIKLAKYDPSIDVAEQHRQQSLQKAIAIQWLCFTPPSTIKDVKDVTSKLLLRSLMHSNILFREFALIAMWRVPATPVGAHTLLSYLAEPLKQLSENPDTLEDYVSENLQEFQDWNEYYSCDAKYRNWLKFQLENAEVTELSEEENQKAVVAAKETLDSSLSLLLRQDNPWMTFLEDHVFESEEYLFLELHATAMLCLPSGECLRPDATVCAALMSALYSSVSEEVVLDRQLMVNVSISSRDSYCIEVVLRCLAIKGDGLGPHNANDGGILSAVAAAGFKGSDIYGTYFSFTYDLPPFSIEIWGCELTRFQAGVTMDISRLDAWYSSKEGSLETPATYIVRGLCRRCCLPELVLRSMQVSVSLMESGNPPEDHDELIELVASDETGFLSLFSRQQLQEFMLFEREYRMSQLELQEELSSP
B6: the binding entry is “binds”.
